Measurements published in the supplement of paper PMC6411743.
± gives the standard deviation of the averaged measurements. This is a selection; strong and weak results do not stand in their true shares.

Chains of the proteins cited; added tags and fusions are not shown. Lines headed by an entry give the natural chain unless they say otherwise; changes in a name come on top.
UniProt Q9HBG7: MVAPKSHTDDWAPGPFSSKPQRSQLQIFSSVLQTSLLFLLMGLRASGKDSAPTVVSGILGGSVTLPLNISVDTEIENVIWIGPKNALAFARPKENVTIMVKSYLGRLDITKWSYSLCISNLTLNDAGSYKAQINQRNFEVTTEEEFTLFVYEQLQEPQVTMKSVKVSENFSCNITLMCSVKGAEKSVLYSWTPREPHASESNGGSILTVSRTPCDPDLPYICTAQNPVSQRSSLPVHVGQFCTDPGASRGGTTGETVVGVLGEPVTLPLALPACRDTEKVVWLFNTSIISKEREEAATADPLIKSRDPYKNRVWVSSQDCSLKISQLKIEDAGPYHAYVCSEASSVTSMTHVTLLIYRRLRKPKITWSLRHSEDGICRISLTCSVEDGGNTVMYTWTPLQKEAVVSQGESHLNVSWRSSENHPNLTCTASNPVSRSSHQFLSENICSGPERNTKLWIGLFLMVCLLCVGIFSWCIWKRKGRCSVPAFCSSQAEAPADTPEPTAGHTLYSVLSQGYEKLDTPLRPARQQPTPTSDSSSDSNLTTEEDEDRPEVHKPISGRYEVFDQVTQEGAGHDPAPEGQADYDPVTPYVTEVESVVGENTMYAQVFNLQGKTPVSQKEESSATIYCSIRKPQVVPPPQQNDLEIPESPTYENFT
UniProt Q7Z422: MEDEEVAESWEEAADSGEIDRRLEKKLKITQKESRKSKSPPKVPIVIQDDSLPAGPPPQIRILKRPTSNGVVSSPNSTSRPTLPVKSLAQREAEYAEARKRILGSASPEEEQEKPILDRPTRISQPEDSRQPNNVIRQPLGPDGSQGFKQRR
UniProt Q7L273: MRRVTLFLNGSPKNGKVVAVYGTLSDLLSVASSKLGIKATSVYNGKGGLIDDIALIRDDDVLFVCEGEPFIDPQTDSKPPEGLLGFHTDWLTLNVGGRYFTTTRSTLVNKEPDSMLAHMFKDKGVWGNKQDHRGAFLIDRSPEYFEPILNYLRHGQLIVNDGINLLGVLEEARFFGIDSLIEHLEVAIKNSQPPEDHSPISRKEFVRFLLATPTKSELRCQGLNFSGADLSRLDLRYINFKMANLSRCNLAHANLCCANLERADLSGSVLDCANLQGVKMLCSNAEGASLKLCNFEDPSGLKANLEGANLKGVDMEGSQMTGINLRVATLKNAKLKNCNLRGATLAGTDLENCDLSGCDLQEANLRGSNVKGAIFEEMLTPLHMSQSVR
UniProt Q7L0Y3: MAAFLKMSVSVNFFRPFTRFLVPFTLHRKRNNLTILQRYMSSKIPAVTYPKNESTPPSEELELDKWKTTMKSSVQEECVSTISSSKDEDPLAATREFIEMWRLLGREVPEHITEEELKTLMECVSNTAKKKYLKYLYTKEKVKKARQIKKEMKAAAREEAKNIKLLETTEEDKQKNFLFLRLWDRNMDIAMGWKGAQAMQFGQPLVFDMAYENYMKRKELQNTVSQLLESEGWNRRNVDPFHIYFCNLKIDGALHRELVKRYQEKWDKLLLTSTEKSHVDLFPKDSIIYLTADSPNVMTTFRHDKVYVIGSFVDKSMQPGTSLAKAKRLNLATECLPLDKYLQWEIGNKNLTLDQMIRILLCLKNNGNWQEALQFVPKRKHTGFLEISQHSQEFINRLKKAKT
UniProt Q6UXN9, whole entry: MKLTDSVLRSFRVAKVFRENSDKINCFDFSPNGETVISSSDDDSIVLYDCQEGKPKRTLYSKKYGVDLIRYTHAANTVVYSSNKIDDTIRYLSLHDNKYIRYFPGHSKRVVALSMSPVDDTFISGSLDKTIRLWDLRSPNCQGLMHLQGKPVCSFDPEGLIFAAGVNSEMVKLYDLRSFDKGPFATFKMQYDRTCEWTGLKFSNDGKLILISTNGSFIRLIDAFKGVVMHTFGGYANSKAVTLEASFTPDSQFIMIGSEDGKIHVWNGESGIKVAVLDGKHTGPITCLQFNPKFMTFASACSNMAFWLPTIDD
UniProt Q6UN15: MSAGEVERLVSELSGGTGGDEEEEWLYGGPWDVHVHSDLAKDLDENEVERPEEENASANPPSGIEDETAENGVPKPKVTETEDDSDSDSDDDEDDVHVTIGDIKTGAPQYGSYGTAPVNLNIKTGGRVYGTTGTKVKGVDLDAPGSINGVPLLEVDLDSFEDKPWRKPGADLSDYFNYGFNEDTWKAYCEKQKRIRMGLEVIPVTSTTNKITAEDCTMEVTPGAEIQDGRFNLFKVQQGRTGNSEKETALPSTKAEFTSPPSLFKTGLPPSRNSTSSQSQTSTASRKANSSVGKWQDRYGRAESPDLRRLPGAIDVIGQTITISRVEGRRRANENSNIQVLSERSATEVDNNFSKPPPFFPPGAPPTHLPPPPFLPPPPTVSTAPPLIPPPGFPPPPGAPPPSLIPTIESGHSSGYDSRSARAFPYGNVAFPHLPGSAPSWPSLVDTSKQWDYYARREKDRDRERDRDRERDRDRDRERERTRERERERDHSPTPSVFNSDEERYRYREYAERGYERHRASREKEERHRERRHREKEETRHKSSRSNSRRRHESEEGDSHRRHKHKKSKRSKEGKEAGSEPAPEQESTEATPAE
UniProt Q6NUM9: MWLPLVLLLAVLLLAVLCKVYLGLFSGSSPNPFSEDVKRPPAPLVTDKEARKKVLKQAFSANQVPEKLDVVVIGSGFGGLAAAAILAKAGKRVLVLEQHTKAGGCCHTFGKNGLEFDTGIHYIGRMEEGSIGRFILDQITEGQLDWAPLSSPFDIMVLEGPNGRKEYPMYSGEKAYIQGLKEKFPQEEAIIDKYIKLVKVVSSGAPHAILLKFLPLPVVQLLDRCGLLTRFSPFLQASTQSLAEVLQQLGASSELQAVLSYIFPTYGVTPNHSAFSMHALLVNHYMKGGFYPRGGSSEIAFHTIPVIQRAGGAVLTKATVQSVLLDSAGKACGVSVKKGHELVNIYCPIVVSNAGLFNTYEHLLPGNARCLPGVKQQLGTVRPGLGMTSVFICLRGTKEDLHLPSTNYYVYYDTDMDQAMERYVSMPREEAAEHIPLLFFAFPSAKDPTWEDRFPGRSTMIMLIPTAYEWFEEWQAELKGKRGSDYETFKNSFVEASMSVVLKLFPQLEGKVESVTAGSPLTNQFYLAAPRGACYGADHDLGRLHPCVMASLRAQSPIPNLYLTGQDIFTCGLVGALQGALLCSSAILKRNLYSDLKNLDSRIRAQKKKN
UniProt Q6PHR2: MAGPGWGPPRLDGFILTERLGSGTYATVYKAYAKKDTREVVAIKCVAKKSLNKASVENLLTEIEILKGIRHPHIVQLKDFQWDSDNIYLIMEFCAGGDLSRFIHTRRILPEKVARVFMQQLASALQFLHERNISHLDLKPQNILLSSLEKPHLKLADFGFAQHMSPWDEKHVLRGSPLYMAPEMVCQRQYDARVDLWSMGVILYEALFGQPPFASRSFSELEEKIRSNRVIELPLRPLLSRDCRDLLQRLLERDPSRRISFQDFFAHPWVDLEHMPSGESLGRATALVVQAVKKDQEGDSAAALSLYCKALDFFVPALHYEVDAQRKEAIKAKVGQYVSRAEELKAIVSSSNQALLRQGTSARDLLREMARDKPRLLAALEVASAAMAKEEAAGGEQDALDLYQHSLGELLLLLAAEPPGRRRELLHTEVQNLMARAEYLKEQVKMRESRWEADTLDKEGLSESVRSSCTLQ
UniProt Q7L2Z9: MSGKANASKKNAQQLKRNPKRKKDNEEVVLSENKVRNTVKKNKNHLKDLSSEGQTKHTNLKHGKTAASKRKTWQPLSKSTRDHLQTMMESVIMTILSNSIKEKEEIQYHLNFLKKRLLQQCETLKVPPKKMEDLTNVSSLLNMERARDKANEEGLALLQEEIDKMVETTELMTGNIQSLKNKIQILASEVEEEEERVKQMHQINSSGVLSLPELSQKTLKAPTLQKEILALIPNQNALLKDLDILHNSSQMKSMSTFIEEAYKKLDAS
UniProt Q6XZF7: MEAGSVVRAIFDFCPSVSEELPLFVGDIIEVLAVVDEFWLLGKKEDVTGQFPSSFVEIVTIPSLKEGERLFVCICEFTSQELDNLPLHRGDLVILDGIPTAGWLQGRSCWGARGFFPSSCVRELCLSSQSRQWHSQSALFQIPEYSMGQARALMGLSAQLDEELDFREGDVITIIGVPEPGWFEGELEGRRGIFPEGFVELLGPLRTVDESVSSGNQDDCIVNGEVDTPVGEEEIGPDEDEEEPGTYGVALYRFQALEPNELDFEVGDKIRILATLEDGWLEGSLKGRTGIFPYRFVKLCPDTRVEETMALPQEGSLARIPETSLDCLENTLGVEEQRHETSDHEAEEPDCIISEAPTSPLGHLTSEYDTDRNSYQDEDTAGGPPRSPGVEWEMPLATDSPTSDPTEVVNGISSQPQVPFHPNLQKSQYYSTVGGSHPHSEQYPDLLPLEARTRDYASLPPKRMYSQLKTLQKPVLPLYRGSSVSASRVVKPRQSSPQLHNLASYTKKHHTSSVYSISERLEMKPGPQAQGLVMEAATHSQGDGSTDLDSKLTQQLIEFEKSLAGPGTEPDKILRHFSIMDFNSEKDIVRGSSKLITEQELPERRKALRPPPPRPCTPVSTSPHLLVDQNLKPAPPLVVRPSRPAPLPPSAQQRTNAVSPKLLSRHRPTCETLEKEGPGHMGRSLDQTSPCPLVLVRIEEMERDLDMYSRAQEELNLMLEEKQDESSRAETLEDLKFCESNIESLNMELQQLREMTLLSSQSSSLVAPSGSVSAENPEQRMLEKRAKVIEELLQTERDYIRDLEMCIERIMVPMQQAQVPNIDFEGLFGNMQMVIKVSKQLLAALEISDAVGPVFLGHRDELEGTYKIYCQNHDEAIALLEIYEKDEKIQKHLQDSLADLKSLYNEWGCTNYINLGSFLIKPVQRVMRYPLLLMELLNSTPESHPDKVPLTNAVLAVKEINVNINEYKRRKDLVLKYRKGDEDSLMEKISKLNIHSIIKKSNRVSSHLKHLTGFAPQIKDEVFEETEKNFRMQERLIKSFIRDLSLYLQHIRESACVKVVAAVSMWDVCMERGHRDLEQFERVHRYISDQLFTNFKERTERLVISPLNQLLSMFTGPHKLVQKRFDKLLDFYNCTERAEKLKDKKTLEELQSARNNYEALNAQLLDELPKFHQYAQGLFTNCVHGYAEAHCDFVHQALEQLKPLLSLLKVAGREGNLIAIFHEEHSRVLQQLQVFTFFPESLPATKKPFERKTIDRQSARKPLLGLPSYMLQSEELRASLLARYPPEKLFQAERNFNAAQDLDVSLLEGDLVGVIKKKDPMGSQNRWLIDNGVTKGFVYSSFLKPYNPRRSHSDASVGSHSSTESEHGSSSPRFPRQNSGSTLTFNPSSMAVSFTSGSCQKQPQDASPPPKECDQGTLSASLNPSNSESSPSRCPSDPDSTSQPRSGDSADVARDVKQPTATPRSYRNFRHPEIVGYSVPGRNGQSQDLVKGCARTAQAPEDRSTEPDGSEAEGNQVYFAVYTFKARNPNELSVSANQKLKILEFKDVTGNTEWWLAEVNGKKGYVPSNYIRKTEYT
UniProt Q66GS9: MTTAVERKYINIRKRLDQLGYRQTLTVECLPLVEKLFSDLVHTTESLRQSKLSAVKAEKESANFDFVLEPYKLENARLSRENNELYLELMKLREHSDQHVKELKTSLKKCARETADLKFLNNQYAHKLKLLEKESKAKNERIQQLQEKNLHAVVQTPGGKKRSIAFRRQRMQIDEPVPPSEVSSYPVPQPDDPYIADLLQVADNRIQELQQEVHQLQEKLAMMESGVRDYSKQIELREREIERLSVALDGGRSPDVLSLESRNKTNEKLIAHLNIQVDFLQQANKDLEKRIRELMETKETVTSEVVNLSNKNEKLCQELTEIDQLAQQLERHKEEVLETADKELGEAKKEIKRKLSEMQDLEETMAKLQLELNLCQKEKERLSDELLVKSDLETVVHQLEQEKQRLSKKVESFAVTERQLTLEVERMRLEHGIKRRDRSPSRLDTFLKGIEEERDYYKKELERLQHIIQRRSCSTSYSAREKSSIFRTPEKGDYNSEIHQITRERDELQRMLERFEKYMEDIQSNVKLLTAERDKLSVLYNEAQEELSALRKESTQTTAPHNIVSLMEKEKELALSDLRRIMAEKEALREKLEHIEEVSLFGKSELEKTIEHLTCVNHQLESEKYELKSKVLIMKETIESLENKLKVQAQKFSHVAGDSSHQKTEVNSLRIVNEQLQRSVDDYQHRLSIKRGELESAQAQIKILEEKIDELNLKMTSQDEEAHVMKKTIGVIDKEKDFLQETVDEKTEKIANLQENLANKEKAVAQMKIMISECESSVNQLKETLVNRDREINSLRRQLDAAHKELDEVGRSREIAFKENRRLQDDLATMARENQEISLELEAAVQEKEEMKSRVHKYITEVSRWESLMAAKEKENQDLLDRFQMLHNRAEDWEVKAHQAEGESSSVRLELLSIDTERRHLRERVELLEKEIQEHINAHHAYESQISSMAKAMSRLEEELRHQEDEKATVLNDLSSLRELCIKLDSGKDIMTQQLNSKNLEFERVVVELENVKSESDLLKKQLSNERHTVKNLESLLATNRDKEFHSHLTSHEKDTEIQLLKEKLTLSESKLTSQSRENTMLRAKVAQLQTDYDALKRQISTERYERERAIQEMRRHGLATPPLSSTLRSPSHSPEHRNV

Compound: Nc1ncnc2c1ncn2[C@@H]1O[C@H](COP(=O)(O)OP(=O)(O)NP(=O)(O)O)[C@@H](O)[C@H]1O [adenylyl imidodiphosphate]
Assay: NP40-soluble protein abundance relative to vehicle (solubility fold change) (ratio); higher = more soluble protein in presence of AMP-PNP
Procedure, shortened: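 In three independent experiments, Jurkat crude lysate made by Dounce homogenisation was treated for 10 min at room temperature and then 3 min at 37 °C with eight concentrations ranging from 0.1 to 10 mM. It was then solubilised with 0.8% NP40 plus benzonase for 60 min at 4 °C and ultracentrifuged. The supernatant was TMT-labelled for LC-MS/MS, and each value is the fold change against the detergent-processed vehicle for the same replicate, using vsn-normalised intensities.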

Target	NP40-soluble protein abundance (concentration: 1mM)	NP40-soluble protein abundance (concentration: 2mM)	NP40-soluble protein abundance (concentration: 4mM)	NP40-soluble protein abundance (concentration: 6mM)	NP40-soluble protein abundance (concentration: 8mM)	NP40-soluble protein abundance (concentration: 10mM)
UniProt Q7LBC6	1.01 ± 0.027	1.03 ± 0.041	1.01 ± 0.013	0.991 ± 0.026	0.962 ± 0.012	0.995 ± 0.017
UniProt Q6ZSZ5	1.02 ± 0.019	1.05 ± 0.03	1.04 ± 0.054	1.01 ± 0.022	0.986 ± 0.053	1.02 ± 0.048
Q5VYH9 and related entries (UniProt Q9HBG7)	1 ± 0.017	1.04 ± 0.038	0.997 ± 0.013	1 ± 0.014	0.998 ± 0.031	0.979 ± 0.031
SLC27A4 (UniProt Q6P1M0)	1.03 ± 0.022	1 ± 0.037	1.04 ± 0.038	1.01 ± 0.037	1.01 ± 0.028	1.03 ± 0.052
APBB1IP (UniProt Q7Z5R6)	0.985 ± 0.035	1.012 ± 0.0027	1.01 ± 0.03	0.988 ± 0.024	0.994 ± 0.034	0.972 ± 0.021
SPNS3 (UniProt Q6ZMD2)	1.002 ± 0.0046	0.997 ± 0.017	0.991 ± 0.016	1.01 ± 0.011	1 ± 0.017	0.989 ± 0.025
UniProt Q7Z422 and related entries	1.09 ± 0.046	1.09 ± 0.058	1.05 ± 0.049	0.992 ± 0.075	0.989 ± 0.039	1.01 ± 0.067
GRAMD4 (UniProt Q6IC98)	1 ± 0.03	1.01 ± 0.032	1.01 ± 0.016	1.03 ± 0.051	1.02 ± 0.013	1.02 ± 0.034
UniProt Q6KC79 and related entries	1.05 ± 0.026	1.13 ± 0.056	1.13 ± 0.025	1.13 ± 0.06	1.1 ± 0.068	1.17 ± 0.052
UniProt Q6IN85	1.004 ± 0.0094	1.013 ± 0.0098	1.002 ± 0.0077	0.991 ± 0.042	0.985 ± 0.013	0.98 ± 0.029
Q5VV87 and related entries (UniProt O14880)	0.956 ± 0.065	0.937 ± 0.051	0.957 ± 0.058	1.01 ± 0.056	1.02 ± 0.014	1.042 ± 0.01
UniProt Q68CP9 and related entries	1.06 ± 0.038	1.08 ± 0.044	1.1 ± 0.067	1.12 ± 0.099	1.12 ± 0.098	1.22 ± 0.15
UniProt Q6IE81 and related entries	1.025 ± 0.0047	1.037 ± 0.0033	1.02 ± 0.022	1.05 ± 0.039	1.024 ± 0.002	1.056 ± 0.0095
UniProt Q5VYS8 and related entries	1.032 ± 0.0083	1.07 ± 0.017	1.07 ± 0.038	1.05 ± 0.043	1.02 ± 0.029	1.06 ± 0.031
UniProt Q6F5E8 and related entries	1.01 ± 0.039	1.02 ± 0.024	1.05 ± 0.055	1.03 ± 0.038	1.04 ± 0.029	1.05 ± 0.032
SLC25A24 (UniProt Q6NUK1)	0.956 ± 0.077	0.937 ± 0.043	0.974 ± 0.07	1.09 ± 0.12	1.07 ± 0.12	1.08 ± 0.089
SDHAF4 (UniProt Q5VUM1)	0.9921 ± 0.0038	1.03 ± 0.035	0.9496 ± 0.0036	0.917 ± 0.017	0.907 ± 0.018	0.93 ± 0.03
UniProt Q5XUX1 and related entries	0.986 ± 0.017	0.96 ± 0.042	0.976 ± 0.026	0.993 ± 0.021	0.982 ± 0.024	0.969 ± 0.028
UHRF1BP1 (UniProt Q6BDS2)	1 ± 0.042	1.006 ± 0.006	1.02 ± 0.026	1.03 ± 0.033	0.998 ± 0.021	1.01 ± 0.0068
TYW3 (UniProt Q6IPR3)	0.998 ± 0.048	0.982 ± 0.032	1 ± 0.081	1 ± 0.042	1.02 ± 0.041	0.998 ± 0.045

Retrieved one by one from the entries so far:
Target	NP40-soluble protein abundance (concentration: 1mM)	NP40-soluble protein abundance (concentration: 2mM)	NP40-soluble protein abundance (concentration: 4mM)	NP40-soluble protein abundance (concentration: 6mM)	NP40-soluble protein abundance (concentration: 8mM)	NP40-soluble protein abundance (concentration: 10mM)
SLC27A4 (UniProt Q6P1M0)	1.03 ± 0.022	1 ± 0.037	1.04 ± 0.038	1.01 ± 0.037	1.01 ± 0.028	1.03 ± 0.052
UniProt Q5XUX1 and related entries	0.986 ± 0.017	0.96 ± 0.042	0.976 ± 0.026	0.993 ± 0.021	0.982 ± 0.024	0.969 ± 0.028
UniProt Q7LBC6	1.01 ± 0.027	1.03 ± 0.041	1.01 ± 0.013	0.991 ± 0.026	0.962 ± 0.012	0.995 ± 0.017
TYW3 (UniProt Q6IPR3)	0.998 ± 0.048	0.982 ± 0.032	1 ± 0.081	1 ± 0.042	1.02 ± 0.041	0.998 ± 0.045
GRAMD4 (UniProt Q6IC98)	1 ± 0.03	1.01 ± 0.032	1.01 ± 0.016	1.03 ± 0.051	1.02 ± 0.013	1.02 ± 0.034

Additional entries

Target	NP40-soluble protein abundance (concentration: 1mM)	NP40-soluble protein abundance (concentration: 2mM)	NP40-soluble protein abundance (concentration: 4mM)	NP40-soluble protein abundance (concentration: 6mM)	NP40-soluble protein abundance (concentration: 8mM)	NP40-soluble protein abundance (concentration: 10mM)
C16orf87 (UniProt Q6PH81)	0.972 ± 0.021	1.03 ± 0.082	0.976 ± 0.035	1.01 ± 0.018	0.999 ± 0.045	1 ± 0.033
CYB5R4 (UniProt Q7L1T6)	0.98 ± 0.049	1 ± 0.012	0.986 ± 0.034	0.987 ± 0.047	0.946 ± 0.028	0.962 ± 0.011
KCTD9 (UniProt Q7L273)	0.987 ± 0.031	0.958 ± 0.039	0.958 ± 0.025	0.997 ± 0.035	0.968 ± 0.047	0.948 ± 0.042
UniProt Q6PCB7 and related entries	1.03 ± 0.034	1.01 ± 0.031	1.01 ± 0.04	0.999 ± 0.022	1.01 ± 0.04	0.9999 ± 0.0099
UniProt Q75QN2 and related entries	0.962 ± 0.043	0.935 ± 0.087	0.982 ± 0.08	0.985 ± 0.064	0.943 ± 0.083	0.937 ± 0.068
RAB11FIP1 (UniProt Q6WKZ4)	1.02 ± 0.037	1.06 ± 0.053	1.05 ± 0.041	1.02 ± 0.039	0.999 ± 0.033	1.03 ± 0.024
DHX57 (UniProt Q6P158)	1.02 ± 0.024	1.03 ± 0.053	1.05 ± 0.044	1.03 ± 0.023	1.02 ± 0.012	1.02 ± 0.017
UniProt Q66PJ3 and related entries	1.03 ± 0.052	1.08 ± 0.067	1.06 ± 0.066	1.11 ± 0.072	1.1 ± 0.12	1.17 ± 0.12
UniProt Q5VWP2	0.9681 ± 0.0066	0.998 ± 0.025	1 ± 0.016	1.01 ± 0.043	0.979 ± 0.041	0.988 ± 0.056
UniProt Q7L0Y3	1 ± 0.017	1 ± 0.042	1.07 ± 0.047	1.14 ± 0.096	1.17 ± 0.092	1.13 ± 0.081
UniProt Q6PIW4 and related entries	0.968 ± 0.012	1 ± 0.023	0.981 ± 0.029	0.974 ± 0.018	0.935 ± 0.011	0.959 ± 0.017
UniProt Q5W0U4	0.9866 ± 0.0019	0.945 ± 0.033	0.9665 ± 0.0068	0.959 ± 0.021	0.961 ± 0.024	0.95772 ± 0.00048
UniProt Q6ICG6 and related entries	0.96 ± 0.044	0.962 ± 0.017	0.968 ± 0.048	0.994 ± 0.06	0.982 ± 0.032	1.01 ± 0.044
UniProt Q6UWE0 and related entries	1 ± 0.019	0.974 ± 0.044	1.01 ± 0.017	0.977 ± 0.032	0.971 ± 0.028	0.996 ± 0.042
UniProt Q6UXN9 and related entries	0.986 ± 0.051	0.916 ± 0.035	1.03 ± 0.083	1.06 ± 0.11	1.139 ± 0.009	1.08 ± 0.11
UniProt Q6NT76 and related entries	1.02 ± 0.035	1.03 ± 0.047	1.02 ± 0.028	0.973 ± 0.021	1.02 ± 0.044	0.987 ± 0.015
UniProt Q6UN15 and related entries	1.03 ± 0.024	1.11 ± 0.062	1.059 ± 0.0078	1.07 ± 0.053	1.08 ± 0.034	1.15 ± 0.064
RETSAT (UniProt Q6NUM9)	0.993 ± 0.031	0.973 ± 0.028	1 ± 0.018	1 ± 0.014	1.05 ± 0.04	0.998 ± 0.028
UniProt Q5VIR6-4	1.04 ± 0.041	1.03 ± 0.042	1.04 ± 0.045	1.02 ± 0.043	0.994 ± 0.044	1.02 ± 0.063
UniProt Q68DK2 and related entries	0.985 ± 0.021	0.966 ± 0.028	0.962 ± 0.03	1.02 ± 0.06	1.02 ± 0.031	1.02 ± 0.051

Target	NP40-soluble protein abundance (concentration: 1mM)	NP40-soluble protein abundance (concentration: 2mM)	NP40-soluble protein abundance (concentration: 4mM)	NP40-soluble protein abundance (concentration: 6mM)	NP40-soluble protein abundance (concentration: 8mM)	NP40-soluble protein abundance (concentration: 10mM)
UniProt Q7Z5K2-2|Q7Z5K2-3|Q7Z5K2	1.04 ± 0.017	1.021 ± 0.003	1.01 ± 0.022	0.993 ± 0.038	0.972 ± 0.038	0.998 ± 0.039
UniProt Q6PCB8 and related entries	1.02 ± 0.012	1.06 ± 0.045	0.997 ± 0.017	1.02 ± 0.064	0.99 ± 0.014	1.01 ± 0.041
USP34 (UniProt Q70CQ2)	0.958 ± 0.032	0.925 ± 0.044	0.955 ± 0.026	0.885 ± 0.021	0.877 ± 0.033	0.873 ± 0.014
UniProt Q69YN4	1.04 ± 0.013	1.03 ± 0.036	1.068 ± 0.0095	1.01 ± 0.082	1.02 ± 0.068	1.01 ± 0.06
UniProt Q6PHR2 and related entries	1.02 ± 0.022	0.99 ± 0.05	0.991 ± 0.021	1.01 ± 0.026	1.02 ± 0.052	1.02 ± 0.08
Q76L82 and related entries (UniProt Q8IXJ9+Q76L82)	0.98 ± 0.025	1.01 ± 0.03	0.984 ± 0.012	1.02 ± 0.029	1.03 ± 0.029	1.05 ± 0.014
UniProt Q6VMQ6 and related entries	1.01 ± 0.021	1.08 ± 0.049	1.02 ± 0.03	1 ± 0.028	0.95 ± 0.011	1.01 ± 0.033
UniProt Q7Z2T5	1.07 ± 0.016	1.04 ± 0.018	1.07 ± 0.048	1.07 ± 0.077	1.12 ± 0.044	1.15 ± 0.066
UniProt Q6GPH4 and related entries	1.01 ± 0.04	1.06 ± 0.039	1.01 ± 0.029	1 ± 0.028	1 ± 0.039	0.989 ± 0.011
UniProt Q7Z2K8 and related entries	0.958 ± 0.012	0.913 ± 0.023	1.12 ± 0.049	1.1 ± 0.038	0.932 ± 0.057	0.932 ± 0.031
CENPQ (UniProt Q7L2Z9)	0.986 ± 0.041	0.966 ± 0.057	0.968 ± 0.044	0.941 ± 0.045	0.905 ± 0.041	0.939 ± 0.026
UniProt Q7L2H7	1 ± 0.021	1 ± 0.085	1.04 ± 0.13	1.25 ± 0.15	1.3 ± 0.15	1.33 ± 0.24
DNMBP (UniProt Q6XZF7)	1.03 ± 0.027	1.05 ± 0.011	1.05 ± 0.055	1.01 ± 0.011	1.01 ± 0.013	1.03 ± 0.019
UniProt Q6NW34 and related entries	1.01 ± 0.027	1.02 ± 0.033	0.977 ± 0.084	0.978 ± 0.028	0.958 ± 0.043	0.965 ± 0.032
UniProt Q6ZRI6 and related entries	0.9914 ± 0.0011	1.01 ± 0.044	1.01 ± 0.018	0.992 ± 0.029	1 ± 0.018	0.99766 ± 5.3e-05
UniProt Q6FI81 and related entries	1 ± 0.045	1.05 ± 0.063	1.02 ± 0.03	1.07 ± 0.029	1.05 ± 0.043	1.06 ± 0.035
CEP135 (UniProt Q66GS9)	0.964 ± 0.047	0.967 ± 0.048	0.985 ± 0.016	0.929 ± 0.048	0.922 ± 0.035	0.894 ± 0.032
PRPF8 (UniProt Q6P2Q9)	0.989 ± 0.039	0.892 ± 0.15	0.979 ± 0.085	0.966 ± 0.098	1.05 ± 0.13	1.02 ± 0.16
HS2ST1 (UniProt Q7LGA3)	1.02 ± 0.028	1.04 ± 0.058	1.14 ± 0.032	1.2 ± 0.079	1.23 ± 0.06	1.2 ± 0.02
THOC7 (UniProt Q6I9Y2)	1.29 ± 0.045	1.47 ± 0.2	1.57 ± 0.24	1.73 ± 0.39	1.85 ± 0.47	1.93 ± 0.64
